Assay results from patent publication US20190099470A1.
These are yes or no findings as the source states them, for the method shown. Some results given as binding are weak or reduced against the parent protein; the word gives no strength.

T1: Mouse MAVS, endogenous, on mitochondria of wild-type MEFs and BMDCs (mouse), Q8VCF0
T1 chain: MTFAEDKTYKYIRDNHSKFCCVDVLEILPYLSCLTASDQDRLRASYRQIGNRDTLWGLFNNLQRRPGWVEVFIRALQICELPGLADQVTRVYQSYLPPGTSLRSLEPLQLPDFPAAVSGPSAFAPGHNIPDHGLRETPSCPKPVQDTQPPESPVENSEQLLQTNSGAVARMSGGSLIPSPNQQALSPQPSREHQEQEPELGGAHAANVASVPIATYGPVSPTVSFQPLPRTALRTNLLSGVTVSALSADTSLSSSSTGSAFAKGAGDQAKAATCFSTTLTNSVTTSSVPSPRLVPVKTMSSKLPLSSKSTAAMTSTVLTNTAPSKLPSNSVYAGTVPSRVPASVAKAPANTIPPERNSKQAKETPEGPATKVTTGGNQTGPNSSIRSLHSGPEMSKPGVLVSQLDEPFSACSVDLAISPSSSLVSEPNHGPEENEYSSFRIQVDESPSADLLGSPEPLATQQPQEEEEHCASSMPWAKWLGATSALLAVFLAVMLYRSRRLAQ

T2: IRF3 (mouse), P70671
T2 chain: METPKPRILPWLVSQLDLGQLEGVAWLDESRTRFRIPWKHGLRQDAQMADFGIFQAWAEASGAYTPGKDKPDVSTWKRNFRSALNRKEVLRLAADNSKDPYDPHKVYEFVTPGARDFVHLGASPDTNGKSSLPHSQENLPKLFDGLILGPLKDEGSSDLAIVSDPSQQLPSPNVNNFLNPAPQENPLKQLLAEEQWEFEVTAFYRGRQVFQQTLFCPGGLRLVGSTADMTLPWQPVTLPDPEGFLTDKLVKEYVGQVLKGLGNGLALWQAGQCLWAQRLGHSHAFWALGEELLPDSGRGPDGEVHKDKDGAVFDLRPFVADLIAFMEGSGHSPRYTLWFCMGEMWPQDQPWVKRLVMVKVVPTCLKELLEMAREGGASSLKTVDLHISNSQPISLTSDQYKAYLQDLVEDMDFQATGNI


What was measured:
Conditions in all cases: remark: other sources report otherwise
[1] = biological target: T1, Mouse MAVS, endogenous, on mitochondria …; assay: self-oligomerization in MEFs; semi-denaturing gel electrophoresis and immunoblot
[2] = biological target: T1, Mouse MAVS, endogenous, on mitochondria …; assay: self-oligomerization in MEFs; immunoblot
[3] = biological target: T1, Mouse MAVS, endogenous, on mitochondria …; assay: self-oligomerization on purified MEF mitochondria; gel electrophoresis and immunoblot
IRF3 (mouse), P70671 = biological target: T2, IRF3 (mouse), P70671; assay: immunoblot of mitochondrial fraction of BMDC treated with purified MAVS aggregates from SLE plasma

| binding [1] | binding [2] | binding [3] | binding (IRF3 (mouse), P70671) | Binder |
| --- | --- | --- | --- | --- |
| binds | binds | binds |  | Mouse MAVS, endogenous, on mitochondria of wild-type MEFs and BMDCs, Q8VCF0 1-503 (protein, UniProt Q8VCF0 1-503, looked up) MTFAEDKTYKYIRDNHSKFCCVDVLEILPYLSCLTASDQDRLRASYRQIGNRDTLWGLFNNLQRRPGWVEVFIRALQICELPGLADQVTRVYQSYLPPGTSLRSLEPLQLPDFPAAVSGPSAFAPGHNIPDHGLRETPSCPKPVQDTQPPESPVENSEQLLQTNSGAVARMSGGSLIPSPNQQALSPQPSREHQEQEPELGGAHAANVASVPIATYGPVSPTVSFQPLPRTALRTNLLSGVTVSALSADTSLSSSSTGSAFAKGAGDQAKAATCFSTTLTNSVTTSSVPSPRLVPVKTMSSKLPLSSKSTAAMTSTVLTNTAPSKLPSNSVYAGTVPSRVPASVAKAPANTIPPERNSKQAKETPEGPATKVTTGGNQTGPNSSIRSLHSGPEMSKPGVLVSQLDEPFSACSVDLAISPSSSLVSEPNHGPEENEYSSFRIQVDESPSADLLGSPEPLATQQPQEEEEHCASSMPWAKWLGATSALLAVFLAVMLYRSRRLAQ |
|  |  |  | binds | IRF3, P70671 1-419 (protein, mouse, UniProt P70671 1-419, looked up) METPKPRILPWLVSQLDLGQLEGVAWLDESRTRFRIPWKHGLRQDAQMADFGIFQAWAEASGAYTPGKDKPDVSTWKRNFRSALNRKEVLRLAADNSKDPYDPHKVYEFVTPGARDFVHLGASPDTNGKSSLPHSQENLPKLFDGLILGPLKDEGSSDLAIVSDPSQQLPSPNVNNFLNPAPQENPLKQLLAEEQWEFEVTAFYRGRQVFQQTLFCPGGLRLVGSTADMTLPWQPVTLPDPEGFLTDKLVKEYVGQVLKGLGNGLALWQAGQCLWAQRLGHSHAFWALGEELLPDSGRGPDGEVHKDKDGAVFDLRPFVADLIAFMEGSGHSPRYTLWFCMGEMWPQDQPWVKRLVMVKVVPTCLKELLEMAREGGASSLKTVDLHISNSQPISLTSDQYKAYLQDLVEDMDFQATGNI |
